# In PubChem BioAssay AID540256 (National Center for Advancing Translational Sciences (NCATS), 2011):
# In all, about 300,000 compounds went through this assay and about 3,700 (1.2%) were called active. Inconclusive results, whose numbers are uncertain, are shown with a selection of clear calls. Calls come from the whole dose curve; tested in HEK293 cells. Potencies beside an inconclusive call are fits to weak or partial responses and may not hold up.
# Assay: qHTS for Inhibitors of binding or entry into cells for Lassa Virus; note: nearly all actives have a fitted effect of over 50% in size
# Details: Lassa virus pseudotype entry inhibition, cell reporter; series mostly up to 37.9 µM
# Potency is the fitted concentration of half-maximal effect.
row,SMILES,Potency
1,CCOC(=O)c1cnc(SCc2nc(N)nc(Nc3ccc(F)cc3)n2)nc1N,"inconclusive: 29.1 µM [inhibitor, single point]"
2,CC(C)(C)CC(=O)NC(=S)NCCc1ccccc1,inactive
3,O=C(NCc1nc2ncc(Br)cc2[nH]1)c1ccccc1,inactive
4,COc1ccccc1OCc1nc(C#N)c(NCCCn2ccnc2)o1,"inconclusive: 35.5 µM [inhibitor, single point]"
5,CC(C)Cn1c(-c2ccc(S(=O)(=O)N3CCOCC3)cc2)csc1=Nc1cc(Cl)ccc1Cl,"inconclusive: 3.55 µM [inhibitor, single point]"
6,O=[N+]([O-])c1cccc(C=Nc2cc3c(cc2Br)OCCO3)c1,"inconclusive: 35.5 µM [inhibitor, single point]"
7,COc1ccccc1Cc1nc2ccccc2nc1SCC(=O)N1CCN(c2ccccc2)CC1,inactive
8,Cc1cc(C)c2cc(CN(Cc3nnnn3C3CCCCC3)CC3CCCO3)c(=O)[nH]c2c1 (stereo unspecified),inactive
9,CC(C)CCNC(=O)COc1ccc(N(C)S(=O)(=O)c2ccc(F)cc2)cc1,"inconclusive: 17.8 µM [inhibitor, partial curve, poor fit]"
10,COc1ccc(CCn2c3c(c(=O)[nH]c2=O)C(NC(=O)c2ccc(C(C)(C)C)cc2)(C(F)(F)F)C(=O)N3)cc1OC (stereo unspecified),inactive
11,Cc1cccc(-n2c(CNC(=O)c3cccc(F)c3)nnc2SCC(=O)Nc2ccccc2F)c1,"inconclusive: 39.8 µM [inhibitor, partial curve, poor fit]"
12,CC1CCN(CC2CCN(C(=O)Nc3ccc(Br)cc3F)CC2)CC1,inactive
13,N/C(CS(=O)(=O)c1ccccn1)=N\OC(=O)c1ccc(Cl)cc1,inactive
14,CC(=O)C1CCC2C3CC=C4CC(SC(=N)N)CCC4(C)C3CCC12C (stereo unspecified),"inconclusive: 35.5 µM [inhibitor, single point]"
15,Brc1ccc(-c2csc(-c3c[nH]c4ccccc34)n2)cc1,inactive
16,CCCCc1ccc(NC(=S)N2CCN(C(=O)OCC)CC2)cc1,"inconclusive: 1.41 µM [inhibitor, full curve, poor fit]"
17,O=C(C1CCN(S(=O)(=O)Cc2ccccc2)CC1)N1CCN(c2cccc(C(F)(F)F)c2)CC1,inactive
18,COc1ccccc1CNC(=O)CN1C(=O)COc2ccc(S(=O)(=O)NC3CCCC3)cc21,inactive
19,COc1ccc(NC(=O)C2=C(C)Nc3ncnn3C2c2cccn2C)cc1 (stereo unspecified),inactive
20,CN(CC(=O)Nc1ccccc1Cl)C(=O)Cn1cc(C(F)(F)F)cc(Cl)c1=O,"inconclusive: 35.5 µM [inhibitor, single point]"
21,CCOC(=O)NC(Nc1sc2c(c1C(=O)OC)CCN(C)C2)(C(F)(F)F)C(F)(F)F,inactive
22,CC(C)CC(c1nnnn1C1CCCC1)N1CCN(c2ccccc2F)CC1 (stereo unspecified),"inconclusive: 22.4 µM [inhibitor, single point]"

# 2 of the compounds above, tab-delimited:
row	SMILES	Potency
20	CN(CC(=O)Nc1ccccc1Cl)C(=O)Cn1cc(C(F)(F)F)cc(Cl)c1=O	inconclusive: 35.5 µM [inhibitor, single point]
21	CCOC(=O)NC(Nc1sc2c(c1C(=O)OC)CCN(C)C2)(C(F)(F)F)C(F)(F)F	inactive

# Next part.

row,SMILES,Potency
1,CC(=O)c1cccc(NC(=O)COC(=O)C2=COCCO2)c1,inactive
2,CN(C)S(=O)(=O)c1ccc(C(=O)NCCSc2c(-c3ccccc3)[nH]c3ccccc23)cc1,"inconclusive: 2.51 µM [inhibitor, partial curve, poor fit]"
3,COc1ccc2nc(N(Cc3cccnc3)C(=O)Cc3ccccc3)sc2c1,"inconclusive: 35.5 µM [inhibitor, single point]"
4,CN(C)C(=O)CSc1nnc(C23CC4CC(CC(C4)C2)C3)o1,"inconclusive: 3.26 µM [activator, partial curve]"
5,CCOC(=O)/C(C#N)=c1/s/c(=C2\C=Cc3ccccc3N2CC)c(=O)n1CC,"inconclusive: 8.91 µM [activator, partial curve, poor fit]"
6,O=C(NNC(=O)c1sccc1-n1cccc1)c1ccc(F)cc1,inactive
7,COc1ccc(N(Cc2cc3cccc(C)c3[nH]c2=O)C(=O)c2cccc(Cl)c2)cc1,"inconclusive: 11.2 µM [inhibitor, partial curve]"
8,O=C(COc1ccccc1Cc1ccccc1)Nc1cccc(S(=O)(=O)N2CCOCC2)c1,"inconclusive: 17.8 µM [inhibitor, partial curve]"
9,COc1cc(S(=O)(=O)NCCc2c(C)[nH]c3ccccc23)c(C)cc1C,"inconclusive: 7.94 µM [inhibitor, partial curve, poor fit]"
10,COc1cc(-c2nc(Cn3nnc(C(=O)Nc4cccc(Cl)c4)c3C)c(C)o2)cc(OC)c1OC,"inconclusive: 2.51 µM [inhibitor, full curve, poor fit]"
11,Nc1nnc(SCc2cccc(C(F)(F)F)c2)s1,"inconclusive: 10.3 µM [inhibitor, partial curve, poor fit]"
12,COc1ccc(-c2nc(S(=O)(=O)c3ccc(Cl)cc3)c(NCc3ccccc3)o2)cc1,"inconclusive: 2.51 µM [inhibitor, full curve, poor fit]"
13,Cc1ccc(C(=O)CSc2nn3c(=O)c(C(C)(C)C)nnc3s2)cc1,inactive
14,COc1ccc(CNC(=O)c2cc3ccccc3o2)cc1OC,"inconclusive: 10 µM [inhibitor, partial curve, poor fit]"
15,CCOc1ccc(C(=O)NC(=S)Nc2ccccc2N2CCCCC2)cc1[N+](=O)[O-],"inconclusive: 7.08 µM [inhibitor, partial curve, poor fit]"
16,Cc1ccc(CCNc2ncnc3onc(-c4ccc(Cl)cc4)c23)cc1,"inconclusive: 5.62 µM [inhibitor, single point]"
17,COC(=O)c1ccc(-c2noc(CN3CCCC(CNC(C)=O)C3)n2)cc1 (stereo unspecified),inactive
18,CN1CCN(C(=O)CN2C(=O)NC(C)(c3ccc4ccccc4c3)C2=O)CC1 (stereo unspecified),inactive
19,O=C(N1CCCCC1)N1CCN(C(c2ccccc2)c2ccccc2)CC1,inactive
20,O=C(O)c1ccccc1C(=O)Nc1ccc(Oc2ccc3ccccc3c2)cc1,"inconclusive: 35.5 µM [inhibitor, partial curve, poor fit]"
21,Cc1ccc(C)c(NC(=S)NC(NC(=O)/C=C/c2ccccc2)C(Cl)(Cl)Cl)c1 (stereo unspecified),active: 7.3 µM
22,CCCn1c(SCC(=O)Nc2cccc(C(=O)OC)c2)nnc1-c1cccnc1,inactive

row,SMILES,Potency
1,Cc1ccc(N=C2NC(=O)/C(=C\c3cccs3)S2)cc1C,"inconclusive: 11.2 µM [inhibitor, partial curve, poor fit]"
2,Cc1ccc(CCNC(=O)C2CCC(=O)N(Cc3ccccc3F)C2)o1 (stereo unspecified),"inconclusive: 2 µM [activator, full curve]"
3,O=c1[nH]c(=O)n(Cc2ccco2)c(O)c1C=NCc1ccco1,inactive
4,O=C1N(Cc2cccc(Cl)c2)C[C@@H]2C[C@@H](c3cccc4ncccc34)N3CCC[C@@]123,"inconclusive: 11.2 µM [inhibitor, partial curve, poor fit]"
5,Cc1noc(C)c1S(=O)(=O)N(CC(=O)NCCc1ccccc1)c1ccc(C(C)C)cc1,"inconclusive: 5.62 µM [inhibitor, single point]"
6,O=C(Cn1nnc(-c2ccccc2)n1)c1ccccc1,"inconclusive: 1.16 µM [inhibitor, partial curve, poor fit]"
7,CCOC(=O)c1c(NC(=O)c2ccc(S(=O)(=O)N(C)C3CCCCC3)cc2)sc2c1CCN(C(C)C)C2,"inconclusive: 3.16 µM [activator, partial curve, poor fit]"
8,COc1ccc(/C=N/NC(=O)c2cccnc2)cc1COc1ccc([N+](=O)[O-])cc1,"inconclusive: 5.62 µM [inhibitor, full curve, poor fit]"
9,COc1cc(-c2nc(Cc3c(F)cccc3Cl)no2)cc(OC)c1OC,"inconclusive: 20.6 µM [inhibitor, single point]"
10,Cc1nc(CC(=O)c2ccc(O)cc2O)cs1,"inconclusive: 14.6 µM [activator, partial curve, poor fit]"
11,COc1ccc(Cl)cc1NC(=S)NCCC(c1ccccc1)c1ccccc1,inactive
12,CCCCCN(C(=O)CCC(=O)OCC(=O)c1ccc(C(C)CC)cc1)c1c(N)n(CCCC)c(=O)[nH]c1=O (stereo unspecified),"inconclusive: 11.2 µM [inhibitor, partial curve]"
13,NC(=O)C1CCN(c2oc(-c3cccs3)nc2S(=O)(=O)c2ccc(Cl)cc2)CC1,"inconclusive: 14.1 µM [inhibitor, single point]"
14,COc1cc(OC)c(C2N(c3cc(C)on3)C(=O)C3CCCN32)cc1OC (stereo unspecified),inactive
15,CCc1ccc(NC(=S)N(CCC(C)C)C2CCN(C(C)=O)CC2)cc1,"inconclusive: 14.1 µM [inhibitor, single point]"
16,COc1ccccc1CNC(=O)c1cn(C)c2ccc(S(=O)(=O)N(C)C3CCCCC3)cc2c1=O,inactive
17,CCOc1ccc(NS(=O)(=O)c2ccc3c(c2)CCCN3C(=O)C2CCC2)cc1,"inconclusive: 6.31 µM [inhibitor, partial curve, poor fit]"
18,COc1ccc(S(=O)(=O)N2CCOCC2)cc1NC(=O)CN1CCCc2ccccc21,"inconclusive: 11.2 µM [inhibitor, partial curve, poor fit]"
19,CNC(=S)N/N=C/c1ccc(-c2cccc(C(=O)O)c2)o1,"inconclusive: 25.1 µM [inhibitor, single point]"
20,CCn1c(SCc2nc(-c3ccc(OC)c(OC)c3)no2)nnc1-c1cccs1,"inconclusive: 13 µM [inhibitor, partial curve, poor fit]"
21,CC(=O)c1sc(NS(=O)(=O)c2ccc(C)cc2)nc1C,"inconclusive: 12.6 µM [activator, partial curve, poor fit]"
22,Cc1[nH]n(-c2ccc(Cl)cc2)c(=O)c1C(=O)c1ccccc1,"inconclusive: 11.2 µM [inhibitor, single point]"
